Data: US9556226B2, “Peptides with antifungal activity and methods of using the peptides” (THE BOARD OF TRUSTEES OF THE UNIVERSITY OF ARKANSAS, priority 2013, dated 2017)
Some entries share one result that the patent states for a list of compounds. Peptide text beside a SMILES is read from it.

Key:
sheep red blood cells = assay: Red blood cell hemolysis assay; format: cell-based; settings: 1 hour at 37° C., peptide concentrations up to 100 μM
Candida albicans SC5314 = format: cell-based; settings: 5 μM peptide
Protocol: Killing assays. The fungicidal activity of the peptides toward Candida albicans was examined by microdilution plate assay as described previously (13). Briefly, from a fresh overnight cultured plate, a single colony was inoculated and diluted in 1 ml of 10 mM sodium phosphate buffer at pH 7.4. Once cell counts had been confirmed by using a hemocytometer, the cells diluted within the same buffer at 1.8×10^5 cells/mil. Cell suspensions of 20 μl were mixed with 20 μl of peptide, which were dissolved in 10 mM sodium phosphate buffer at pH 7.4, and then incubated for 2 hours at 37° C. with shaking at speeds of 550 rpm. The reactions were stopped by the addition of 360 μl yeast nitrogen base (YNB) and then 40 μl of cell suspension was spread onto plates and incubated for 24 hours at 37° C. Sabouraud dextrose agar plates were used for C. albicans killing assay. The number of colony-forming units (CFUs) was counted and each assay was repeated in triplicate. Loss of viability was calculated as [1-(colonies from suspension with peptide/colonies from suspension with no peptide)]×100. For the respiratory activity experiments, Candida albicans was grown in the presence of sodium azide or antimycin A (Sigma Aldrich) before the killing assay was performed.

CC(=O)N[C@@H](Cc1ccc(O)cc1)C(=O)N[C@@H](CCCCN)C(=O)N[C@@H](CCCNC(=N)N)C(=O)N[C@@H](CCCCN)C(=O)N[C@@H](Cc1ccccc1)C(=O)N[C@@H](CCCCN)C(=O)N[C@@H](CCCNC(=N)N)C(=O)N[C@@H](CCCCN)C(=O)N[C@@H](Cc1ccc(O)cc1)C(N)=O [KM29, Y-K-R-K-F-K-R-K-Y] (Ac-YKRKFKRKY-NH2)
hemolysis activity (sheep red blood cells): ≤ 3%

CC(=O)N[C@@H](Cc1ccccc1)C(=O)N[C@@H](CCCCN)C(=O)N[C@@H](CCCNC(=N)N)C(=O)N[C@@H](CCCCN)C(=O)N[C@@H](Cc1ccc(O)cc1)C(N)=O [KM5, F-K-R-K-Y] (Ac-FKRKY-NH2)
hemolysis activity (sheep red blood cells): ≤ 3%

CC(=O)N[C@@H](CSSC[C@H](NC(C)=O)C(=O)N[C@@H](Cc1c[nH]c2ccccc12)C(=O)N[C@@H](CCCCN)C(=O)N[C@@H](CCCNC(=N)N)C(=O)N[C@@H](CCCCN)C(=O)N[C@@H](Cc1c[nH]c2ccccc12)C(N)=O)C(=O)N[C@@H](Cc1c[nH]c2ccccc12)C(=O)N[C@@H](CCCCN)C(=O)N[C@@H](CCCNC(=N)N)C(=O)N[C@@H](CCCCN)C(=O)N[C@@H](Cc1c[nH]c2ccccc12)C(N)=O [KM14, W-K-R-K-W-C-----C-W-K-R-K-W]
percent of C. albicans killed at 5 μM concentration (Candida albicans SC5314): > 90%

CC(=O)N[C@@H](CSSC[C@H](NC(C)=O)C(=O)N[C@@H](Cc1ccccc1)C(=O)N[C@@H](CCCCN)C(=O)N[C@@H](CCCNC(=N)N)C(=O)N[C@@H](CCCCN)C(=O)N[C@@H](Cc1ccc(O)cc1)C(N)=O)C(=O)N[C@@H](Cc1ccccc1)C(=O)N[C@@H](CCCCN)C(=O)N[C@@H](CCCNC(=N)N)C(=O)N[C@@H](CCCCN)C(=O)N[C@@H](Cc1ccc(O)cc1)C(N)=O [KM12, Y-K-R-K-F-C-----C-F-K-R-K-Y]
percent of C. albicans killed at 5 μM concentration (Candida albicans SC5314): > 90%
